No constants are given. Whether binding was seen depends on the method and setting. In cells and extracts the contact can be indirect. For some assays here: Tags and fused reporters may be left off the sequences shown.
Legend:
[1] = target: T1, KDELR-mCherry (human) (UniProt P24390); assay: co-IP; anti-RFP agarose beads, HeLa lysates (20 mM HEPES pH 7.4, 100 mM NaCl, 2 mM DDM, 0.02% CHS), 4 h at 4 °C, western blot of endogenous partners
T1 sequence: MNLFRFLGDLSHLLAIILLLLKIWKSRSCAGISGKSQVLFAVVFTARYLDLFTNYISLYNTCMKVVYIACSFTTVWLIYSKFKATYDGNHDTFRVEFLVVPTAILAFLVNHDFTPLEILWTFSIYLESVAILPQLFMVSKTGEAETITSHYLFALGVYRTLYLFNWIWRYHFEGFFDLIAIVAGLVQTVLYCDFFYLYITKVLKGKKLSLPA

[2] = target: T2, endogenously Flag-mCherry tagged KDELR (human (endogenous in HeLa)) (UniProt P24390); assay: as above
T2 sequence: T1 sequence

binding [1]: no binding | binding [2]: no binding
Substance: E-cadherin (endogenous, HeLa) (human (endogenous in HeLa))

Reference: publication PMC10880305
